# Source: PubChem BioAssay AID1487 (National Center for Advancing Translational Sciences (NCATS), 2009)
# Among all 200,000 compounds or so, about 25 (0.01%) were called active. The inconclusive results got no clear call from the source; some entries with a clear call stand among them for comparison. Calls come from the whole dose curve; as a rule, active = well fitted inhibition curve with a large enough effect in the signal ratio, with a control signal flat (not every such curve was filed as active); inconclusive = small, poorly fitted or top-dose-only effect, or effect the other way, or a change in a side signal; inactive = flat fitted curve, though single readings scatter; the % refers to the signal ratio. Where the call is inconclusive, the potency comes from a doubtful curve fit.
# Assay: qHTS Assay for Modulators of Lamin A Splicing
# Details: HeLa LMNA splicing GFP/RFP minigene ratio, 48 h; ratio change, negative = inhibition: at 46.1 µM (top of the series) unless noted
# How it was run: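 Read-out is the ratio of GFP to DsRed2 object intensity, acquired by 488 nm laser-scanning cytometry on HeLa lamin A-EGFP minigene reporter cells. Compound incubation 48 hrs at 37 °C in Opti-MEM with 2% FBS; DMSO 0.5% final.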
# % is set by controls: 0 for no effect and ±100 for the full control effect; potency is the fitted concentration of half-maximal effect.
Structure (SMILES),"ratio change, negative = inhibition",Potency
COc1ccc(OC)c(-c2nc(CN3CCCCC3c3cccnc3)c(C)o2)c1 (stereo unspecified),inconclusive: -1.2% [at 46 µM],
CC(C)(C)c1ccc(S(=O)(=O)NCc2ccc(C(=O)N3CCCC3)cc2)cc1,inactive: 3.5%,
COc1ccc2oc(=O)c(-c3nc4ccc(C)cc4[nH]3)cc2c1,inconclusive: 0.897% [at 46 µM],
COc1ccc(N(C2CSC2)S(=O)(=O)c2ccccc2)cc1,inconclusive: 19.1%,
CC(C)c1nc(SCC(=O)Nc2nc3c(s2)CCCC3)c2ccccc2n1,inconclusive: 79.6%,
O=C(CCCCC(=O)NC1CCCC1)NC1CCCC1,inconclusive: -2.97%,
O=C(COCc1cc(-c2ccc3c(c2)OCO3)on1)N1CCN(c2cccc(C(F)(F)F)c2)CC1,inconclusive: -3.86% [at 46 µM],
COc1cc(/C=C(\C#N)C(=O)NCC2CCCO2)ccc1OCC(N)=O (stereo unspecified),inactive: 13.9% [at 46 µM],
COc1cccc(NS(=O)(=O)c2ccc3[nH]cc(C(=O)NCCc4ccc(C)cc4)c(=O)c3c2)c1,inconclusive: -8.76% [at 46 µM],
CCn1cc(C(=O)NCc2ccco2)c2cc(OC)c(OC)cc2c1=O,inactive: -3.5%,
COc1ccccc1C(=O)NCCc1csc(-c2ccc(C(F)(F)F)cc2)n1,inconclusive: -16% [at 46 µM],
O=C(NCCSCc1ccccc1)c1ccc(F)cc1,inactive: 4.34%,
CCn1ncc(/C=N\NC(=O)Cc2ccc([N+](=O)[O-])cc2)c1C,inconclusive: -9.57%,
CC(C)C(=O)NC(=S)N1CCc2ccccc21,inconclusive: -2.27%,
Cc1cccc(Cn2nnc3c2C(=O)c2ccccc2C3=O)c1,inconclusive: 278%,
COc1ccc(O)c(/C=N/NC(=O)CSc2nnc(C)n2-c2ccccc2)c1,,"inconclusive: 31.6 µM [inhibitor, single point]"
O=C(c1ccc(S(=O)(=O)Nc2ccc(F)cc2)cc1)N1CCN(C(=O)c2ccco2)CC1,,"inconclusive: 10 µM [falling, partial curve]"
COc1cc(-c2onc3ccc(Br)cc23)cc(OC)c1OC,inactive: 1.78% [at 46 µM],
S=C(c1cn(Cc2ccc(Br)cc2)c2ccccc12)N1CCOCC1,,"inconclusive: 35.5 µM [falling, single point]"
Cn1c(SCC(=O)Nc2ccccc2F)nc2c([nH]c3ccccc32)c1=O,inconclusive: -13% [at 46 µM],
COCCCN=Cc1c(C)[nH]n(-c2ccc(Br)cc2Br)c1=O,inconclusive: 12.4% [at 9.22 µM],

Structure (SMILES),"ratio change, negative = inhibition",Potency
CCOc1cccc(/C=N/NC(=S)Nc2cc(S(=O)(=O)N3CCOCC3)ccc2N2CCOCC2)c1O,,"inconclusive: 17.8 µM [fluorescent, single point]"
S=c1[nH]nc(-c2ccco2)n1-c1ccc(Cl)cc1,inactive: 25.1% [at 46 µM],
COc1ccc(S(=O)(=O)N2CCCOC2CNC(=O)C(=O)NCCCn2ccnc2)cc1 (stereo unspecified),inconclusive: 25.1% [at 46 µM],
CC(=O)N(\C=C/C=C/C=C1\Sc2ccccc2C1=O)c1ccccc1,inactive: -2.37% [at 46 µM],
CN(C)C(=O)c1ccc(-c2cncnc2N(C)Cc2ccco2)cc1,inconclusive: 32.8%,
CCOC(=O)c1cc(CC)sc1NC(=O)CSc1nc2ccccc2c(=O)n1Cc1ccco1,inconclusive: 15.1%,
CCOc1ccc(C(=O)OCc2cc(=O)n3nc(C(C)C)sc3n2)cc1,inconclusive: -16% [at 46 µM],
COC(=O)c1ccc(/C=N/OCC(=O)NC2CCCC(C)C2C)cc1 (stereo unspecified),inactive: 4.43%,
Cc1ccccc1OCC(=O)N/N=C/c1cn(Cc2ccccc2)c2ccccc12,inactive: -6.34%,
COc1cccc(NC(=O)CN2C(=O)C3(SCC(=O)N3c3cc(C)cc(C)c3)c3ccccc32)c1 (stereo unspecified),inconclusive: -14% [at 46 µM],
COC(=O)c1cc2oc(C)cc2n1Cc1ccc(Cl)cc1,inconclusive: -14.7% [at 46 µM],
CCCC(=O)c1ccc(N2CCCCC2)c(F)c1,inactive: 1.25% [at 46 µM],
O=C1CCS/C(=N\N=C\c2ccc(Cl)cc2Cl)N1,,"inconclusive: 15.8 µM [activator, single point]"
CCCc1ccc(OCc2nc(-c3ccc(NC(=O)c4cccs4)cc3)no2)cc1,inactive: -0.683%,
CCCN(CCC)CCCNC(=O)c1nn(C)c2c1CS(=O)(=O)c1ccccc1-2,inconclusive: -5.11% [at 46 µM],
CC(=O)Nc1nonc1-c1nnc(SCc2cccc(Br)c2)n1C,inconclusive: -2.79% [at 46 µM],
CCOC(=O)c1c(NC(=O)CN2C(=O)NC(C)(c3ccccc3)C2=O)sc(C)c1C (stereo unspecified),,"inconclusive: 15.8 µM [rising, single point]"
O=C1/C(=C/c2cccnc2)Oc2cc(OS(=O)(=O)c3ccccc3)ccc21,inactive: -7.88%,
Cc1cc2ccc(C)c(C)c2nc1SCC(=O)c1cccs1,inactive: 3.13%,
CC(=O)c1c(N2CCCCC2)nc(=O)n(-c2ccccc2)c1C,inactive: -5.58%,
COc1ccc(-c2cn3c(n2)sc2cc(C(=O)NC4CCCCC4)ccc23)cc1,inconclusive: 27% [at 46 µM],

# In the list so far, these have a halogen.
Structure (SMILES),"ratio change, negative = inhibition",Potency
O=C(COCc1cc(-c2ccc3c(c2)OCO3)on1)N1CCN(c2cccc(C(F)(F)F)c2)CC1,inconclusive: -3.86% [at 46 µM],
COc1ccccc1C(=O)NCCc1csc(-c2ccc(C(F)(F)F)cc2)n1,inconclusive: -16% [at 46 µM],
O=C(NCCSCc1ccccc1)c1ccc(F)cc1,inactive: 4.34%,
O=C(c1ccc(S(=O)(=O)Nc2ccc(F)cc2)cc1)N1CCN(C(=O)c2ccco2)CC1,,"inconclusive: 10 µM [falling, partial curve]"
COc1cc(-c2onc3ccc(Br)cc23)cc(OC)c1OC,inactive: 1.78% [at 46 µM],
S=C(c1cn(Cc2ccc(Br)cc2)c2ccccc12)N1CCOCC1,,"inconclusive: 35.5 µM [falling, single point]"
Cn1c(SCC(=O)Nc2ccccc2F)nc2c([nH]c3ccccc32)c1=O,inconclusive: -13% [at 46 µM],
COCCCN=Cc1c(C)[nH]n(-c2ccc(Br)cc2Br)c1=O,inconclusive: 12.4% [at 9.22 µM],
S=c1[nH]nc(-c2ccco2)n1-c1ccc(Cl)cc1,inactive: 25.1% [at 46 µM],
COC(=O)c1cc2oc(C)cc2n1Cc1ccc(Cl)cc1,inconclusive: -14.7% [at 46 µM],
CCCC(=O)c1ccc(N2CCCCC2)c(F)c1,inactive: 1.25% [at 46 µM],
O=C1CCS/C(=N\N=C\c2ccc(Cl)cc2Cl)N1,,"inconclusive: 15.8 µM [activator, single point]"
CC(=O)Nc1nonc1-c1nnc(SCc2cccc(Br)c2)n1C,inconclusive: -2.79% [at 46 µM],

# Pulled by compound from above:
Structure (SMILES),"ratio change, negative = inhibition",Potency
COc1ccc(N(C2CSC2)S(=O)(=O)c2ccccc2)cc1,inconclusive: 19.1%,
CC(C)C(=O)NC(=S)N1CCc2ccccc21,inconclusive: -2.27%,

# (further entries)

Structure (SMILES),"ratio change, negative = inhibition",Potency
Cc1ccc(CNC(=O)C2CCN(S(=O)(=O)c3c(C)noc3/C=C/c3ccccc3F)CC2)o1,inactive: 1.41% [at 46 µM],
N#Cc1c(SCC(N)=O)nc(-c2ccccc2)c2c1CCCC2,inconclusive: 5.82%,
COc1ccc(Cl)cc1NC(=O)c1c(NCc2cccs2)sc2c1CCC(C)C2 (stereo unspecified),inconclusive: -34.8% [at 46 µM],
Cn1cc(-c2cc3n(n2)CCC(=O)N3CC(=O)NCc2ccccc2)c2ccccc21,inactive: 6.67% [at 46 µM],
Cc1c(NC(=O)c2nn3c(C(F)(F)F)cc(-c4ccccc4)nc3c2Br)c(=O)n(-c2ccccc2)n1C,inconclusive: 12.2%,
Cc1ccccc1C(=O)Nc1ccc2nc(SCC(=O)N(C)c3ccccc3)sc2c1,inconclusive: 7.09% [at 46 µM],
COc1ccc(OC)c(NC(=O)c2ccc(CSc3ncccn3)cc2)c1,inconclusive: 8.25% [at 46 µM],
Cc1[nH]c2ccccc2c1C(=O)C(C)OC(=O)c1ccc([N+](=O)[O-])o1 (stereo unspecified),inconclusive: -47.1% [at 46 µM],
O=C1C2C3C=CC(CO)(O3)C2C(=O)N1c1ccccc1-c1ccccc1 (stereo unspecified),inactive: 8.17%,
CCCNC(=O)Cn1nc(C)c2c(C)n(-c3ccccc3)nc2c1=O,inconclusive: 19.2% [at 46 µM],
COc1ccc(CNc2ncncc2-c2ccoc2)c(OC)c1,inconclusive: -28.9%,
CCCn1c(C)cc(C(=O)COC(=O)c2nccnc2N)c1C,inconclusive: 9% [at 46 µM],
Clc1ccc(-c2csc(N3CCSCC3)n2)cc1,inconclusive: 9.91%,
CCN(CC)C(=O)CSc1nnc(-c2ccc(F)cc2)n1N,inconclusive: 4.75%,
CCOC(=O)C1=C(C)N(C)C(=O)C1CC(=O)O (stereo unspecified),inconclusive: 35.8%,
O=C(CCl)N=c1sccn1Cc1cccc2ccccc12,inactive: 21.7% [at 46 µM],
Cc1cc2cc(CNC(=O)CCC(=O)O)ccc2n1C,inconclusive: -2.79% [at 46 µM],
CC(C)OCCCNC(=O)NC12CC3CC(CC(C3)C1)C2,inactive: -11.5%,
N#CCSc1nc2c(c(=O)n1Cc1ccco1)C1(CCCC1)Cc1ccccc1-2,,"inconclusive: 35.5 µM [fluorescent, single point]"
COc1ccc(C(=O)c2ccc(N3CCN(C(=O)c4ccc(F)cc4)CC3)c(F)c2)cc1Br,,"inconclusive: 5.62 µM [falling, single point]"
CC(=O)N[C@@H](CS)C(=O)O,inconclusive: 8.08% [at 46 µM],

Structure (SMILES),"ratio change, negative = inhibition",Potency
CC1CC(=O)N(c2ccc(NCc3ccc(Cl)cc3)c([N+](=O)[O-])c2)C1=O (stereo unspecified),inconclusive: -33.2%,
Cc1ccc(-n2cc(C(=O)OCc3ccc(Cl)cc3)c3ccccc3c2=O)cc1,inactive: 1.37% [at 46 µM],
COc1ccc(/C=C2\SC(=O)N(CC(=O)NNC(=O)c3ccccc3O)C2=O)cc1,inconclusive: 20.5%,
COC(=O)c1ccc(OCC2c3cc(OC)c(OC)cc3CCN2C(=O)Cc2ccc(OC)c(OC)c2)cc1 (stereo unspecified),inactive: -8.43% [at 46 µM],
O=C(Nc1cccc(Cl)c1)c1ccc2c(c1)SC1=NS(=O)(=O)CCN12,inconclusive: -4.65% [at 46 µM],
O=C(C[n+]1ccccc1)Nc1ccc(Oc2ccccc2)cc1,inconclusive: -1.43% [at 46 µM],
Cc1cc2ccccc2c(=O)n1CC(=O)NCCC1=CCCCC1,inconclusive: 12.4% [at 9.22 µM],
CCCSc1nnc(NC(=O)Cc2ccc(OC)c(OC)c2)s1,inconclusive: -6.32% [at 46 µM],
Nc1nc(-c2nonc2N)no1,inactive: -4.3% [at 46 µM],
O=C(Cc1cccs1)N1CCN(c2nc(-c3ccc(Cl)cc3)cs2)CC1,,"inconclusive: 25.1 µM [falling, single point]"
CC1CCCCC1NC(=O)CO/N=C/c1ccc(OC(F)F)cc1 (stereo unspecified),inconclusive: -38.4% [at 46 µM],
Nc1c(S(=O)(=O)c2ccccc2)c2nc3ccccc3nc2n1Cc1ccco1,inconclusive: 46.2%,
CCOC(=O)c1c(NC(=O)COc2cccc3c2CCN(CC)C3=O)sc2c1CCC2,inactive: 5.08%,
O=C(Nc1cccc2ccccc12)C12CC3CC(C1)CC(n1cnc([N+](=O)[O-])n1)(C3)C2,inconclusive: -31.6%,
Cc1nc2c(cc(Oc3ccc(S(=O)(=O)N4CCOCC4)cn3)c3ccsc32)s1,,"inconclusive: 15.8 µM [fluorescent, single point]"
CN(C)c1ccc(N=Nc2ccccc2C(=O)OCC(=O)Nc2ccccc2C(F)(F)F)cc1,inactive: -5%,
CCOC(=O)c1cc(-c2ccc(OC)cc2)n(CCC(=O)NCCc2ccc(OCC)c(OCC)c2)c1C,inconclusive: 12.3% [at 46 µM],
COc1ccc2cc3c(N)nn(C(=O)Cc4ccc(Cl)cc4)c3nc2c1,inactive: 14.1%,
